PubChem BioAssay AID1508588 | Peter MacCallum Cancer Centre, 2020
Purpose: 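Which gene losses make BRAF-mutant melanoma cells more responsive to vemurafenib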 (primary screen). System: human WM266.4 melanoma cells (BRAF V600 mutant). Knock-down reagent: siRNA pool against human genes, 40 nM. Time to read-out: 96 h from transfection to read-out. Challenge: vemurafenib 300 nM (about IC25), added 48 h after transfection, for 48 h; comparison arm got DMSO vehicle only. Detection: 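Ratios to non-targeting siRNA for cell gain, counted as DAPI nuclei after minus before drug and averaged over two replicates, and for absorbance-read medium lactate per cell; both binned into fold-change classes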. Direction: cell gain with vemurafenib: higher = more cell gain than with non-targeting siRNA; lactate per cell with vemurafenib: higher = more lactate made per cell. Call rule: 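a knock-down counts as enhancing when its fold-change classes with vehicle and with vemurafenib, taken together, show a stronger drug effect on cell gain or lactate per cell; exact class pairs not stated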. Calls: active = enhances vemurafenib effect; inactive = no enhancement seen.
Shown is a random part of about 18,000 deposited reagents. Over the whole deposit, 790 (4.4%) were called active. 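Calls rest on a combination of fold-change classes in drug and vehicle arms, not all shown here.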 No sequences are given here.

gene	cell gain with vemurafenib	lactate per cell with vemurafenib	Call
COL14A1 (collagen type XIV alpha 1 chain)	0.56	1.49	inactive
FYB2 (FYN binding protein 2)	0.61	0.9	inactive
DRG1 (developmentally regulated GTP binding protein 1)	0.81	1.15	inactive
RNASE1 (ribonuclease A family member 1, pancreatic)	1.29	0.75	inactive
SEC24B (SEC24 homolog B, COPII component)	0.83	0.88	inactive
H1-10 (H1.10 linker histone)	0.25	2.06	inactive
BAGE5 (BAGE family member 5)	0.81	1.12	inactive
RHBDL3 (rhomboid like 3)	0.47	2.15	inactive
NEUROD4 (neuronal differentiation 4)	0.44	0.32	active
SCUBE1 (signal peptide, CUB domain and EGF like domain containing 1)	0.9	1.2	inactive
ELSPBP1 (epididymal sperm binding protein 1)	0.2	1.05	inactive
VWC2 (von Willebrand factor C domain containing 2)	0.25	0.34	inactive

Reagents above with an active call (1):
gene	cell gain with vemurafenib	lactate per cell with vemurafenib	Call
NEUROD4 (neuronal differentiation 4)	0.44	0.32	active

Further entries follow:
gene	cell gain with vemurafenib	lactate per cell with vemurafenib	Call
VPS9D1 (VPS9 domain containing 1)	1.36	0.8	inactive
PCBP1 (poly(rC) binding protein 1)	0.59	0.56	inactive
ZDHHC15 (zDHHC palmitoyltransferase 15)	0.89	0.45	active
ABT1 (activator of basal transcription 1)	1.15	0.66	inactive
RGR (retinal G protein coupled receptor)	-0.07	3.37	inactive
ZNF326 (zinc finger protein 326)	0.6	0.86	inactive
TSSK2 (testis specific serine kinase 2)	0.69	0.66	inactive
NRARP (NOTCH regulated ankyrin repeat protein)	0.72	0.47	inactive
HELLS (helicase, lymphoid specific)	0.81	0.6	inactive
SEPTIN9 (septin 9)	0.78	1.21	inactive
RPGRIP1 (RPGR interacting protein 1)	0.13	1.42	inactive
N4BP3 (NEDD4 binding protein 3)	0.62	0.48	inactive
SNRPB2 (small nuclear ribonucleoprotein polypeptide B2)	0.46	0.4	inactive
ATF7 (activating transcription factor 7)	0.88	0.96	inactive
CHST3 (carbohydrate sulfotransferase 3)	0.17	1.51	inactive
POLQ (DNA polymerase theta)	0.52	1.12	inactive
PDS5B (PDS5 cohesin associated factor B)	0.46	0.64	inactive
PRPF18 (pre-mRNA processing factor 18)	0.34	1.7	inactive
BMP15 (bone morphogenetic protein 15)	0.62	1.29	inactive
PYM1 (PYM1 exon junction complex associated factor)	0.21	1.35	inactive
FFAR3 (free fatty acid receptor 3)	0.31	1.5	inactive
MSI2 (musashi RNA binding protein 2)	0.44	1.51	inactive
